Measured values from patent US20170281792A1 (Genentech, published 2017).
No constants are given. Whether binding was seen depends on the method and setting. Some entries that bind do so weakly or less than the wild type.

Amino acid sequences for entries named in this document (tags omitted). A change or cut given only in a name is not applied to a line headed by its entry.
UniProt Q13421: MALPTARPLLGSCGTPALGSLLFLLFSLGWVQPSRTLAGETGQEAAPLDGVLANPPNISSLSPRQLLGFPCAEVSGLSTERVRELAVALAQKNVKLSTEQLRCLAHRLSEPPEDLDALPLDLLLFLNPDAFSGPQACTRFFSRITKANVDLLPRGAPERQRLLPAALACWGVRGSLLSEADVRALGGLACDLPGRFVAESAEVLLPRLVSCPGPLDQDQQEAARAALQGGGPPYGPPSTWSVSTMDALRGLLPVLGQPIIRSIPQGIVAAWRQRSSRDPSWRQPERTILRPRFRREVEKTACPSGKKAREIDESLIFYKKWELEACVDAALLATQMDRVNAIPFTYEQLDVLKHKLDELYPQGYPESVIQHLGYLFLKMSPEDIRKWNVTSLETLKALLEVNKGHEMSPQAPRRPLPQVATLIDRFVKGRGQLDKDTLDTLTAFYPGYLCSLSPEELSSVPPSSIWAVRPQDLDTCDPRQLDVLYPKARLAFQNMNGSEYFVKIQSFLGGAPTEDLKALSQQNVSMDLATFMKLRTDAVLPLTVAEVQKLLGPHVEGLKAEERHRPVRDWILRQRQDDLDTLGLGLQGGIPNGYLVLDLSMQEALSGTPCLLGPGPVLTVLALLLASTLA

Experiments:
[1] = biological target: gD epitope-tagged human mesothelin expressed on cells (construct #387) (human) (UniProt Q13421); assay: immunoprecipitation from BJAB cells stably expressing gD-tagged human mesothelin, Western blot with murine anti-gD
[2] = biological target: gD epitope-tagged human mesothelin expressed on cells (construct #387) (human) (UniProt Q13421); assay: immunoprecipitation from HT1080 cells
[3] = biological target: C-terminally his-tagged human mesothelin expressed in CHO cells (Mono S fractions A11, A12, B1, B5) (human) (UniProt Q13421); assay: figure legend (SPR and immunoprecipitation)
[4] = biological target: human mesothelin on cells (endogenous on tumour cell lines and tissue, or stably expressed on A431 or HT1080 cells; no tag stated) (human) (UniProt Q13421); assay: FACS on H226x2 and OvCar3x2.1 cells
[5] = biological target: cyno mesothelin mutants (R153 to E and G174 to D) (cynomolgus monkey); assay: FACS on cells expressing cyno mesothelin mutants (FIG. 18B)
[6] = biological target: gD epitope-tagged human mesothelin expressed on cells (construct #387) (human) (UniProt Q13421); assay: FACS on stably transfected 293 cells, 10 µg/ml
[7] = biological target: R153E; assay: FACS on cells expressing the cyno mesothelin mutant, signal as % of the anti-gD signal (Example G)
[8] = biological target: G174D; assay: as above
[9] = biological target: human mesothelin on cells (endogenous on tumour cell lines and tissue, or stably expressed on A431 or HT1080 cells; no tag stated) (human) (UniProt Q13421); assay: FACS on H226x2 cells, endogenous mesothelin
[10] = biological target: E. coli derived recombinant human mesothelin (human) (UniProt Q13421); assay: SPR (Biacore), summary of the humanization
[11] = biological target: E. coli derived recombinant human mesothelin (human) (UniProt Q13421); assay: SPR (Biacore), IgG over immobilized E. coli derived human mesothelin
[12] = biological target: immobilized human mesothelin (tryptic peptide mapping) (human) (UniProt Q13421); assay: tryptic peptide mapping
[13] = biological target: human mesothelin on cells (endogenous on tumour cell lines and tissue, or stably expressed on A431 or HT1080 cells; no tag stated) (human) (UniProt Q13421); assay: FACS on HPAC cells, endogenous mesothelin
[14] = biological target: human mesothelin on cells (endogenous on tumour cell lines and tissue, or stably expressed on A431 or HT1080 cells; no tag stated) (human) (UniProt Q13421); assay: FACS on OvCar3x2.1 cells, endogenous mesothelin

binding [1]: binds | binding [2]: binds | binding [3]: binds | binding [4]: binds | binding [5]: binds | binding [6]: binds | binding [7]: binds | binding [8]: binds | binding [9]: binds | binding [10]: binds | binding [11]: binds | binding [12]: binds | binding [13]: binds | binding [14]: binds
B1: humanized monoclonal antibody 7D9.v3 (antibody, V domains shown)
VH: EVQLVESGGGLVQPGGSLRLSCAASGYTFTTYWMHWVRQAPGKGLEWVGYIRPSTGYTEYNQKFKDRFTISADTSKNTAYLQMNSLRAEDTAVYYCARSRWLLDYWGQGTLVTVS
VL: DIQMTQSPSSLSASVGDRVTITCKSSQSVLYSSNQKNYLAWFQQKPGKAPKLLIYWASTRESGVPSRFSGSGSGTDFTLTISSLQPEDFATYFCHQYLSSYTFGQGTKVEIKR
notes: also called h7D9.v3; hu7D9.v3
